Source: publication PMC5882713, “Sensitive colorimetric assay using insulin G-quadruplex aptamer arrays on DNA nanotubes coupled with magnetic nanoparticles”
The exact form of at least one protein or probe is not confirmed. At least one verdict was read from the data and is not stated in words by the source.

System: insulin
Experiment: colorimetric aptamer capture assay (hemin/TMB peroxidase read-out, 450 nm) on MNP-coupled DNA nanotubes
Settings: hemin, 100 nM insulin, 2 uM aptamer, signal linear 1.56-100 uIU/ml, LoD 0.39 uIU/ml; Binding buffer 20 mM Tris-HCl, 140 mM NaCl, 5 mM KCl, 1 mM CaCl2, 1 mM MgCl2, pH 7.4, room temperature, 40-60 min; then hemin in DMSO 1 h and TMB-H2O2; commercial protein; label: 5' biotin; folded or branched DNA

GGTGGTGGGGGGGGTTGGTAGGGTGTCTTC [G-quadruplex insulin aptamer (G-rich aptamer)]
binding result: binds
